Measured values taken from patent US11542475B2, “3D microphysiologic system” (Northwestern University, priority 2014, dated 2023).
For at least one compound, name, drawing or mass did not settle the structure.

How the values were obtained:
Assay type in all cases: cell-based, human
LIF = LIF ELISA of 3D endocervical culture media; conditions: RU486 starting from day 21
[1] = system: mucins of 3D endocervical cultures; test: Endocervical mucus: MUC16 IHC and ELISA, PAS and Alcian blue staining; conditions: 100 nM RU486 in the presence of E2 and P4
IL-1β = IL-1β ELISA of 3D endocervical culture media; conditions: RU486 starting from day 21

CC#C[C@]1(O)CC[C@H]2[C@@H]3CCC4=CC(=O)CCC4=C3[C@@H](c3ccc(N(C)C)cc3)C[C@@]21C [RU486]
effect on E2 and P4 inhibition of LIF (LIF): attenuated the inhibition | levels of secreted MUC16 [1]: did not significantly alter | effect on E2 and P4 inhibition of IL-1β (IL-1β): attenuated the inhibition
